Measured data: PubChem BioAssay AID743454 (Peter MacCallum Cancer Centre, 2014)
The deposit covers about 18,000 reagents; shown is a random part of them. 450 of them (2.5%) count as active. 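Single biological run; no consistent viability z cut-off exists, so the class columns, not z-scores, define the calls.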 Entries without a mark were called inactive. Reagent sequences are not shown.

Test: 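Knock-downs lowering viability or raising caspase 3/7 activity in vorinostat-treated resistant cells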 (primary screen)
Cells: human HCT116-VR colon cancer cells, selected for vorinostat resistance
Knock-down reagent: siRNA pool against human genes, 40 nM siRNA pool
Time to read-out: vorinostat for 24 h, read-out about 72 h after transfection
Conditions: vorinostat at 2.5 µM final
Detection: 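Cell viability by CellTiter-Fluor and caspase 3/7 activity by luminescence, each scaled to mock wells per plate, duplicates averaged, then robust z-scored over all plates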
Reading the numbers: viability robust z-score: higher = more viable cells than screen typical; caspase robust z-score: higher = more caspase 3/7 activity than screen typical
Call rule: 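a knock-down is a hit when classed RV1 or RV2 for lowered viability, or CA1 or CA2 for caspase activation; those lethal without drug were dropped; hits were retested singly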

target gene	viability hit class	caspase hit class	viability robust z-score	caspase robust z-score
GLT1D1 (GeneID 144423)	no change	no change	1.69	-0.21
RIPPLY2 (GeneID 134701)	no change	no change	0.24	-0.72
NFATC2 (GeneID 4773)	no change	no change	0.52	-0.31
TAB3 (GeneID 257397)	no change	no change	-1.27	-0.12
RHOBTB3 (GeneID 22836)	no change	no change	0.42	-0.06
PSG6 (GeneID 5675)	no change	no change	0.6	3.64
RADX (GeneID 55086)	no change	no change	1.68	-0.02
BET1 (GeneID 10282)	no change	no change	0.8	0.2
EVX1 (GeneID 2128)	no change	no change	0.24	0.9
RNF214 (GeneID 257160)	no change	no change	-0.16	-0.35
ACACA (GeneID 31)	no change	no change	-0.55	0.31
MAP2K7 (GeneID 5609)	no change	no change	-0.44	3.71
ASNS (GeneID 440)	no change	no change	1.1	-0.6
ZDHHC5 (GeneID 25921)	no change	no change	-0.32	0.31
UCP1 (GeneID 7350)	no change	no change	1	-0.66
DCTN2 (GeneID 10540)	no change	no change	-0.04	-0.12
RPL19 (GeneID 6143)	no change	no change	-3.8	-0.78
TMEM138 (GeneID 51524)	no change	no change	0.02	1.09
PIH1D1 (GeneID 55011)	no change	no change	-0.12	0.54
LRRC66 (GeneID 339977)	no change	no change	-0.15	-1.48
DNAH2 (GeneID 146754)	no change	no change	1.04	-0.48
TXN2 (GeneID 25828)	no change	no change	0.14	-0.51
PLCH1 (GeneID 23007)	no change	no change	0.72	-0.32
